This is an account of results in article PMC12222831.

Sequences of proteins named here, by UniProt entry; tags and fusion partners are left off. Residues count along the entry.
UniProt P11021, residues 19-654: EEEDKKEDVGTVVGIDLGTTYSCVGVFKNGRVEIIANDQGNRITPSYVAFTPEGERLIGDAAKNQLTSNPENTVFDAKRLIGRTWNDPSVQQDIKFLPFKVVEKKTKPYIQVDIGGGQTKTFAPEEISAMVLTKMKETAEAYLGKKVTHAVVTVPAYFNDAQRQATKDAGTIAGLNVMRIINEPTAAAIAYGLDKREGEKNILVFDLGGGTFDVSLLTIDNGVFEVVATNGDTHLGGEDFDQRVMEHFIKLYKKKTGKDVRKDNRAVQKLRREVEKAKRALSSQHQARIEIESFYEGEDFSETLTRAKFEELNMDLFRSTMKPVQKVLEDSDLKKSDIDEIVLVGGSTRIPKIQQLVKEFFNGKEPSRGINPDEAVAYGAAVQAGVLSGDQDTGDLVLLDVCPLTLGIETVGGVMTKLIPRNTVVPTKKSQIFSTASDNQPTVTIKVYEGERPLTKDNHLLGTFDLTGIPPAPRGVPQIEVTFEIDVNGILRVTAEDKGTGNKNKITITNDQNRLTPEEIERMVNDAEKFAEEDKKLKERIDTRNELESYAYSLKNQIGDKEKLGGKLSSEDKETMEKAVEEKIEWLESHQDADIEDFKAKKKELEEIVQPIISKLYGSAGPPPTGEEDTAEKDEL
UniProt P19474: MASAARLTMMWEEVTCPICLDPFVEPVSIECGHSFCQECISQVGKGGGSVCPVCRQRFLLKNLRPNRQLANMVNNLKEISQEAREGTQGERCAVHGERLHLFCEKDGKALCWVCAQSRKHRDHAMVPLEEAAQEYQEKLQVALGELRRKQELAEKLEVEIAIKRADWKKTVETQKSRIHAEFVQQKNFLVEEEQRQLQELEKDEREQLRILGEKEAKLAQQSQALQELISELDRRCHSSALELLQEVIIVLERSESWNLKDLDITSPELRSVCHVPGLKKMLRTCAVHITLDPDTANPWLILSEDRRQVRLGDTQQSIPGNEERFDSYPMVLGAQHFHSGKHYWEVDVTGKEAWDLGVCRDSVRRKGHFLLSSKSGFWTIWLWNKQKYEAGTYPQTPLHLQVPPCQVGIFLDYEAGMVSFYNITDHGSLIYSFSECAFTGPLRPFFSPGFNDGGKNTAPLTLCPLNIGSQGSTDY

Assay in all cases: affinity purification with mass spectrometry; immunoprecipitation with anti-AKR1C3 or anti-HSPA5 from lysates of OE33 AKR1C3 and SKGT-4 cells; LC-MS/MS, MaxQuant label-free quantification
For assay [1], the target named is T1, Aldo-keto reductase 1C3 (AKR1C3), endogenous in SKGT-4 cells (human (endogenous in SKGT-4)) (UniProt P42330).
T1 sequence: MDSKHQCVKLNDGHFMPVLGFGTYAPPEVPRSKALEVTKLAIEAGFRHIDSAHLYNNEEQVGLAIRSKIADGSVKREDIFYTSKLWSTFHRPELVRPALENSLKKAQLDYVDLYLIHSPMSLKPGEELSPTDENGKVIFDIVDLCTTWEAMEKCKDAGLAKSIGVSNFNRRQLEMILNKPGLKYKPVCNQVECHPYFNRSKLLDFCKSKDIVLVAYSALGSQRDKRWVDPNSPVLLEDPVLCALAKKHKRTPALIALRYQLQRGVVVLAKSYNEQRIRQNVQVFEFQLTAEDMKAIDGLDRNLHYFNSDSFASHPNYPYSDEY

The target in assay [2] is T2, Aldo-keto reductase 1C3 (AKR1C3), overexpressed in OE33 cells (OE33 AKR1C3) (UniProt P42330).
T2 sequence: T1 sequence

Assay [3] addresses Heat-shock-protein family A member 5 (HSPA5), endogenous in EAC cells (human (endogenous in OE33 and SKGT-4)) (UniProt P11021).

Results are given in words; binding and its absence hold for the method and conditions named. Binding seen in cells or lysates may run through a third protein. These calls come from enrichment with a bait or labelling near it, and not all partners need be listed.

Turning to “Heat-shock-protein family A member 5 (HSPA5), endogenous in EAC cells (from UniProt P11021 19-654)”, the binding entry in assay [1] and in assay [2] was “binds” in each case.
With “Tripartite motif-containing protein 21 (TRIM21), endogenous in EAC cells (from UniProt P19474 1-475)”, the binding entry in assay [3] is recorded as “binds”.
